No constants are given. Whether binding was seen depends on the method and setting. In cells and extracts the contact can be indirect. Some results given as binding are weak or reduced against the parent protein; the word gives no strength. Sequences can lack the tags named with a protein.

In this assay the target is T1, FLAG-tagged HCMV UL82 (human cytomegalovirus (HCMV)) (UniProt P06726).
T1 sequence: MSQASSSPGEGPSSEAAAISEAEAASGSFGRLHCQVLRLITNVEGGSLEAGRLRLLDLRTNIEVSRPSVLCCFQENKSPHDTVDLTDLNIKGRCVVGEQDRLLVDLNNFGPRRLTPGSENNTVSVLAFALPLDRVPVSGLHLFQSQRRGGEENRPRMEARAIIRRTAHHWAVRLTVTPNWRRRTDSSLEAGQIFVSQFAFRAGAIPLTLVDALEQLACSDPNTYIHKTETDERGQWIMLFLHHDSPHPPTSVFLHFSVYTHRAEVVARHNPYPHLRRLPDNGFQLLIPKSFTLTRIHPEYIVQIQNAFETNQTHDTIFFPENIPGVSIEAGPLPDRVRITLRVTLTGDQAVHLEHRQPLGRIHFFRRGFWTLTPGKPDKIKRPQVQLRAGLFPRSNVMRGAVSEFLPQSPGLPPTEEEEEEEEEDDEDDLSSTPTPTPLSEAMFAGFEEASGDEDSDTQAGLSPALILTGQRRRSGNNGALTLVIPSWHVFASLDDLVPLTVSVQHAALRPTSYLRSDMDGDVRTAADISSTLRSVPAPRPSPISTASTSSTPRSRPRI
Description: co-IP.

B1: TLE5 (endogenous, HEK293T) (protein, UniProt Q08117 1-197)
chain: MMFPQSRHSGSSHLPQQLKFTTSDSCDRIKDEFQLLQAQYHSLKLECDKLASEKSEMQRHYVMYYEMSYGLNIEMHKQAEIVKRLNGICAQVLPYLSQEHQQQVLGAIERAKQVTAPELNSIIRQQLQAHQLSQLQALALPLTPLPVGLQPPSLPAVSAGTGLLSLSALGSQAHLSKEDKNGHDGDTHQEDDGEKSD
On to B1, for which the binding entry is recorded as “binds”.

Source of the values: publication doi:10.64898/2025.12.01.691387.
